The record followed here is US12729225B2, “Non-canonical SWI/SNF complex and uses thereof” (Dana-Farber Cancer Institute, Inc., priority 2018, dated 2026).

B1: ACADM (protein, UniProt P11310 26-421, looked up)
Medium-chain specific …: KANRQREPGLGFSFEFTEQQKEFQATARKFAREEIIPVAAEYDKTGEYPVPLIRRAWELGLMNTHIPENCGGLGLGTFDACLISEELAYGCTGVQTAIEGNSLGQMPIIIAGNDQQKKKYLGRMTEEPLMCAYCVTEPGAGSDVAGIKTKAEKKGDEYIINGQKMWITNGGKANWYFLLARSDPDPKAPANKAFTGFIVEADTPGIQIGRKELNMGQRCSDTRGIVFEDVKVPKENVLIGDGAGFKVAMGAFDKTRPVVAAGAVGLAQRALDEATKYALERKTFGKLLVEHQAISFMLAEMAMKVELARMSYQRAAWEVDSGRRNTYYASIAKAFAGDIANQLATDAVQILGGNGFNTEYPVEKLMRDAKIYQIYEGTSQIQRLIVAREHIDKYKN
B2: CSN1S1 (protein, UniProt P47710 16-185, looked up)
Alpha-S1-casein: RPKLPLRYPERLQNPSESSEPIPLESREEYMNGMNRQRNILREKQTDEIKDTRNESTQNCVVAEPEKMESSISSSSEEMSLSKCAEQFCRLNEYNQLQLQAAHAQEQIRRMNENSHVQVPFQQLNQLAAYPYAVWYYPQIMQYVPFPPFSDISNPTAHENYEKNNVMLQW
B3: DNAJB11 (protein, UniProt Q9UBS4 23-358, looked up)
DnaJ homolog subfamily B …: GRDFYKILGVPRSASIKDIKKAYRKLALQLHPDRNPDDPQAQEKFQDLGAAYEVLSDSEKRKQYDTYGEEGLKDGHQSSHGDIFSHFFGDFGFMFGGTPRQQDRNIPRGSDIIVDLEVTLEEVYAGNFVEVVRNKPVARQAPGKRKCNCRQEMRTTQLGPGRFQMTQEVVCDECPNVKLVNEERTLEVEIEPGVRDGMEYPFIGEGEPHVDGEPGDLRFRIKVVKHPIFERRGDDLYTNVTISLVESLVGFEMDITHLDGHKVHISRDKITRPGAKLWKKGEGLPNFDNNNIKGSLIITFDVDFPKEQLTEEAREGIKQLLKQGSVQKVYNGLQGY
B4: SF3A3 (protein)
chain: METILEQQRRYHEEKERLMDVMAKEMLTKKSTLRDQINSDHRTRAMQDRYMEVSGNLRDLYDDKDGLRKEELNAISGPNEFAEFYNRLKQIKEFHRKHPNEICVPMSVEFEELLKARENPSEEAQNLVEFTDEEGYGRYLDLHDCYLKYINLKASEKLDYITYLSIFDQLFDIPKERKNAEYKRYLEMLLEYLQDYTDRVKPLQDQNELFGKIQAEFEKKWENGTFPGWPKETSSALTHAGAHLDLSAFSSWEELASLGLDRLKSALLALGLKCGGTLEERAQRLFSTKGKSLESLDTSLFAKNPKSKGTKRDTERNKDIAFLEAQIYEYVEILGEQRHLTHENVQRKQARTGEEREEEEEEQISESESEDEENEIIYNPKNLPLGWDGKPIPYWLYKLHGLNINYNCEICGNYTYRGPKAFQRHFAEWRHAHGMRCLGIPNTAHFANVTQIEDAVSLWAKLKLQKASERWQPDTEEEYEDSSGNVVNKKTYEDLKRQGLL
B5: MTHFD1L (protein, UniProt Q6UB35 32-978, looked up)
Monofunctional …: SSGGGGGGGGGREGLLGQRRPQDGQARSSCSPGGRTPAARDSIVREVIQNSKEVLSLLQEKNPAFKPVLAIIQAGDDNLMQEINQNLAEEAGLNITHICLPPDSSEAEIIDEILKINEDTRVHGLALQISENLFSNKVLNALKPEKDVDGVTDINLGKLVRGDAHECFVSPVAKAVIELLEKSGVNLDGKKILVVGAHGSLEAALQCLFQRKGSMTMSIQWKTRQLQSKLHEADIVVLGSPKPEEIPLTWIQPGTTVLNCSHDFLSGKVGCGSPRIHFGGLIEEDDVILLAAALRIQNMVSSGRRWLREQQHRRWRLHCLKLQPLSPVPSDIEISRGQTPKAVDVLAKEIGLLADEIEIYGKSKAKVRLSVLERLKDQADGKYVLVAGITPTPLGEGKSTVTIGLVQALTAHLNVNSFACLRQPSQGPTFGVKGGAAGGGYAQVIPMEEFNLHLTGDIHAITAANNLLAAAIDTRILHENTQTDKALYNRLVPLVNGVREFSEIQLARLKKLGINKTDPSTLTEEEVSKFARLDIDPSTITWQRVLDTNDRFLRKITIGQGNTEKGHYRQAQFDIAVASEIMAVLALTDSLADMKARLGRMVVASDKSGQPVTADDLGVTGALTVLMKDAIKPNLMQTLEGTPVFVHAGPFANIAHGNSSVLADKIALKLVGEEGFVVTEAGFGADIGMEKFFNIKCRASGLVPNVVVLVATVRALKMHGGGPSVTAGVPLKKEYTEENIQLVADGCCNLQKQIQITQLFGVPVVVALNVFKTDTRAEIDLVCELAKRAGAFDAVPCYHWSVGGKGSVDLARAVREAASKRSRFQFLYDVQVPIVDKIRTIAQAVYGAKDIELSPEAQAKIDRYTQQGFGNLPICMAKTHLSLSHQPDKKGVPRDFILPISDVRASIGAGFIYPLVGTMSTMPGLPTRPCFYDIDLDTETEQVKGLF
B6: ZNF579 (protein, UniProt Q8NAF0 1-562, looked up)
Zinc finger protein 579: MDPQPPPPAQGSPPHRGRGRGRGRGRGRGRGRGRGGAGAPRAPLPCPTCGRLFRFPYYLSRHRLSHSGLRPHACPLCPKAFRRPAHLSRHLRGHGPQPPLRCAACPRTFPEPAQLRRHLAQEHAGGEVELAIERVAKETAEPSWGPQDEGSEPPTTAAAGATEEEAVAAWPETWPAGEPSTLAAPTSAAEPRESESEEAEAGAAELRAELALAAGRQEEKQVLLQADWTLLCLRCREAFATKGELKAHPCLRPEGEQEGEGGPPPRPKRHQCSICLKAFARPWSLSRHRLVHSTDRPFVCPDCGLAFRLASYLRQHRRVHGPLSLLAPLPAAGKKDDKASGARNSAKGPEGGEGAECGGASEGGEGQNGGDAAPARPPAGEPRFWCPECGKGFRRRAHLRQHGVTHSGARPFQCVRCQREFKRLADLARHAQVHAGGPAPHPCPRCPRRFSRAYSLLRHQRCHRAELERAAALQALQAQAPTSPPPPPPPLKAEQEEEGLPLPLANIKEEPPSPGTPPQSPPAPPVFLSASCFDSQDHSAFEMEEEEVDSKAHLRGLGGLAS
B7: ARCN1 (protein, UniProt P48444 2-511, looked up)
Coatomer subunit delta: VLLAAAVCTKAGKAIVSRQFVEMTRTRIEGLLAAFPKLMNTGKQHTFVETESVRYVYQPMEKLYMVLITTKNSNILEDLETLRLFSRVIPEYCRALEENEISEHCFDLIFAFDEIVALGYRENVNLAQIRTFTEMDSHEEKVFRAVRETQEREAKAEMRRKAKELQQARRDAERQGKKAPGFGGFGSSAVSGGSTAAMITETIIETDKPKVAPAPARPSGPSKALKLGAKGKEVDNFVDKLKSEGETIMSSSMGKRTSEATKMHAPPINMESVHMKIEEKITLTCGRDGGLQNMELHGMIMLRISDDKYGRIRLHVENEDKKGVQLQTHPNVDKKLFTAESLIGLKNPEKSFPVNSDVGVLKWRLQTTEESFIPLTINCWPSESGNGCDVNIEYELQEDNLELNDVVITIPLPSGVGAPVIGEIDGEYRHDSRRNTLEWCLPVIDAKNKSGSLEFSIAGQPNDFFPVQVSFVSKKNYCNIQVTKVTQVDGNSPVRFSTETTFLVDKYEIL
B8: PABPN1 (protein, UniProt Q86U42 2-306, looked up)
Polyadenylate-binding protein …: AAAAAAAAAAGAAGGRGSGPGRRRHLVPGAGGEAGEGAPGGAGDYGNGLESEELEPEELLLEPEPEPEPEEEPPRPRAPPGAPGPGPGSGAPGSQEEEEEPGLVEGDPGDGAIEDPELEAIKARVREMEEEAEKLKELQNEVEKQMNMSPPPGNAGPVIMSIEEKMEADARSIYVGNVDYGATAEELEAHFHGCGSVNRVTILCDKFSGHPKGFAYIEFSDKESVRTSLALDESLFRGRQIKVIPKRTNRPGISTTDRGFPRARYRARTTNYNSSRSRFYSGFNSRPRGRVYRGRARATSWYSPY
B9: NUP155 (protein, UniProt O75694 2-1391, looked up)
Nuclear pore complex protein …: PSSLLGAAMPASTSAAALQEALENAGRLIDRQLQEDRMYPDLSELLMVSAPNNPTVSGMSDMDYPLQGPGLLSVPNLPEISSIRRVPLPPELVEQFGHMQCNCMMGVFPPISRAWLTIDSDIFMWNYEDGGDLAYFDGLSETILAVGLVKPKAGIFQPHVRHLLVLATPVDIVILGLSYANLQTGSGVLNDSLSGGMQLLPDPLYSLPTDNTYLLTITSTDNGRIFLAGKDGCLYEVAYQAEAGWFSQRCRKINHSKSSLSFLVPSLLQFTFSEDDPILQIAIDNSRNILYTRSEKGVIQVYDLGQDGQGMSRVASVSQNAIVSAAGNIARTIDRSVFKPIVQIAVIENSESLDCQLLAVTHAGVRLYFSTCPFRQPLARPNTLTLVHVRLPPGFSASSTVEKPSKVHRALYSKGILLMAASENEDNDILWCVNHDTFPFQKPMMETQMTAGVDGHSWALSAIDELKVDKIITPLNKDHIPITDSPVVVQQHMLPPKKFVLLSAQGSLMFHKLRPVDQLRHLLVSNVGGDGEEIERFFKLHQEDQACATCLILACSTAACDREVSAWATRAFFRYGGEAQMRFPTTLPPPSNVGPILGSPVYSSSPVPSGSPYPNPSFLGTPSHGIQPPAMSTPVCALGNPATQATNMSCVTGPEIVYSGKHNGICIYFSRIMGNIWDASLVVERIFKSGNREITAIESSVPCQLLESVLQELKGLQEFLDRNSQFAGGPLGNPNTTAKVQQRLIGFMRPENGNPQQMQQELQRKFHEAQLSEKISLQAIQQLVRKSYQALALWKLLCEHQFTIIVAELQKELQEQLKITTFKDLVIRDKELTGALIASLINCYIRDNAAVDGISLHLQDICPLLYSTDDAICSKANELLQRSRQVQNKTEKERMLRESLKEYQKISNQVDLSNVCAQYRQVRFYEGVVELSLTAAEKKDPQGLGLHFYKHGEPEEDIVGLQAFQERLNSYKCITDTLQELVNQSKAAPQSPSVPKKPGPPVLSSDPNMLSNEEAGHHFEQMLKLSQRSKDELFSIALYNWLIQVDLADKLLQVASPFLEPHLVRMAKVDQNRVRYMDLLWRYYEKNRSFSNAARVLSRLADMHSTEISLQQRLEYIARAILSAKSSTAISSIAADGEFLHELEEKMEVARIQLQIQETLQRQYSHHSSVQDAVSQLDSELMDITKLYGEFADPFKLAECKLAIIHCAGYSDPILVQTLWQDIIEKELSDSVTLSSSDRMHALSLKIVLLGKIYAGTPRFFPLDFIVQFLEQQVCTLNWDVGFVIQTMNEIGVPLPRLLEVYDQLFKSRDPFWNRMKKPLHLLDCIHVLLIRYVENPSQVLNCERRRFTNLCLDAVCGYLVELQSMSSSVAVQAITGNFKSLQAKLERLH
B10: HMGB2 (protein, UniProt P26583 1-209, looked up)
High mobility group protein B2: MGKGDPNKPRGKMSSYAFFVQTCREEHKKKHPDSSVNFAEFSKKCSERWKTMSAKEKSKFEDMAKSDKARYDREMKNYVPPKGDKKGKKKDPNAPKRPPSAFFLFCSEHRPKIKSEHPGLSIGDTAKKLGEMWSEQSAKDKQPYEQKAAKLKEKYEKDIAAYRAKGKSEAGKKGPGRPTGSKKKNEPEDEEEEEEEEDEDEEEEDEDEE

The first data set has as its system mSWI/SNF complexes. As to the kind of experiment: mSWI/SNF complex purification with HA-tagged baits and mass spectrometry (peptide counts). Also noted: species or system human. The conditions noted are these: 293_HA-BRD7: HA-BRD7 bait purification, total peptide count per co-purified protein.
B1 returned a Total of 13.

Still in this data set, the particulars now being: 293_HA-BRD7: HA-BRD7 bait purification, unique peptide count per co-purified protein.
B1 came in with a Unique of 13.

Still in this data set, the particulars now being: 293_HA-BRD7 bait purification, mass spectrometry; total peptide count per identified protein.
In turn, B2 returned a Total of 1.

Regarding B3, the Total turned out to be 1.

On to B4, for which the Total was found to be 1.

For B5, the Total was 1.

B6 showed a Total of 1.

Regarding B7, the Total was 1.

For B8, the Total amounted to 1.

The molecule B9 came in with a Total of 1.

On to B10, for which the Total is on record as 1.

The same data set, now with this note: 293_HA-BRD7 bait purification, mass spectrometry; unique peptide count per identified protein.
B2: the Unique is 1.

In the case of B3, the Unique came to 1.

Molecule B4 registered a Unique of 1.

B5 displayed a Unique of 1.

Take B6: the Unique worked out at 1.

B7 yielded a Unique of 1.

B8: the Unique is 1.

B9 gave a Unique of 1.

B10 had a Unique of 1.
